Source: paper PMC6546911 (Nature Communications, 2019)
These are yes or no findings as the source states them, for the method shown. Some entries that bind do so weakly or less than the wild type.

Molecular target: T1, Elg1, budding yeast (budding yeast) (UniProt Q12050)
T1 sequence: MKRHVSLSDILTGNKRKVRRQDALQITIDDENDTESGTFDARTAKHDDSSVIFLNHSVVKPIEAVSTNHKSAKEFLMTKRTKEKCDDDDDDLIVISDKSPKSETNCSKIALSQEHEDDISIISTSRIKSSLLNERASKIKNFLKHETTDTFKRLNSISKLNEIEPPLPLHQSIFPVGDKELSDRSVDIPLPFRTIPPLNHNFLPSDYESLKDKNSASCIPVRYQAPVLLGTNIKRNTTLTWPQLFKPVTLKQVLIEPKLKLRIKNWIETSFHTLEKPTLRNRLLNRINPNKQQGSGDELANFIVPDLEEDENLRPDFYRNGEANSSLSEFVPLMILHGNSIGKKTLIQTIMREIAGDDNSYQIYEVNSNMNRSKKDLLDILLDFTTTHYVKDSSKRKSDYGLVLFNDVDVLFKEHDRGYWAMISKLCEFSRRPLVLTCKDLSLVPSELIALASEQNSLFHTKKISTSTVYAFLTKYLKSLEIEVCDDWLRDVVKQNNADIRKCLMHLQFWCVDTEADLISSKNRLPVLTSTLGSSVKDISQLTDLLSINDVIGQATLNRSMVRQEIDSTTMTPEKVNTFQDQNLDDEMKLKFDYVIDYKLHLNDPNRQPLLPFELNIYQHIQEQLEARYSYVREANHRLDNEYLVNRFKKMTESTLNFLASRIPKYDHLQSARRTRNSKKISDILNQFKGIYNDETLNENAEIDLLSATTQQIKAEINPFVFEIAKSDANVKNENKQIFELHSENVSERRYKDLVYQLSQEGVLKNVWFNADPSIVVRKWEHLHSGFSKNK
Test: co-purification (anti-FLAG resin, ion exchange); Elg1 variants overexpressed with Rfc2–5 in yeast (galactose, 5 h); anti-FLAG M2 agarose and ion exchange chromatography

binding: binds
B1: Rfc2–5, budding yeast (complex, UniProt P40348 1-353; P38629 1-340; P40339 1-323; P38251 1-354)
chain 1: MFEGFGPNKKRKISKLAAEQSLAQQPWVEKYRPKNLDEVTAQDHAVTVLKKTLKSANLPHMLFYGPPGTGKTSTILALTKELYGPDLMKSRILELNASDERGISIVREKVKNFARLTVSKPSKHDLENYPCPPYKIIILDEADSMTADAQSALRRTMETYSGVTRFCLICNYVTRIIDPLASRCSKFRFKALDASNAIDRLRFISEQENVKCDDGVLERILDISAGDLRRGITLLQSASKGAQYLGDGKNITSTQVEELAGVVPHDILIEIVEKVKSGDFDEIKKYVNTFMKSGWSAASVVNQLHEYYITNDNFDTNFKNQISWLLFTTDSRLNNGTNEHIQLLNLLVKISQL
chain 2: MSTSTEKRSKENLPWVEKYRPETLDEVYGQNEVITTVRKFVDEGKLPHLLFYGPPGTGKTSTIVALAREIYGKNYSNMVLELNASDDRGIDVVRNQIKDFASTRQIFSKGFKLIILDEADAMTNAAQNALRRVIERYTKNTRFCVLANYAHKLTPALLSRCTRFRFQPLPQEAIERRIANVLVHEKLKLSPNAEKALIELSNGDMRRVLNVLQSCKATLDNPDEDEISDDVIYECCGAPRPSDLKAVLKSILEDDWGTAHYTLNKVRSAKGLALIDLIEGIVKILEDYELQNEETRVHLLTKLADIEYSISKGGNDQIQGSAVIGAIKASFENETVKANV
chain 3: MSKTLSLQLPWVEKYRPQVLSDIVGNKETIDRLQQIAKDGNMPHMIISGMPGIGKTTSVHCLAHELLGRSYADGVLELNASDDRGIDVVRNQIKHFAQKKLHLPPGKHKIVILDEADSMTAGAQQALRRTMELYSNSTRFAFACNQSNKIIEPLQSRCAILRYSKLSDEDVLKRLLQIIKLEDVKYTNDGLEAIIFTAEGDMRQAINNLQSTVAGHGLVNADNVFKIVDSPHPLIVKKMLLASNLEDSIQILRTDLWKKGYSSIDIVTTSFRVTKNLAQVKESVRLEMIKEIGLTHMRILEGVGTYLQLASMLAKIHKLNNKA
chain 4: MSLWVDKYRPKSLNALSHNEELTNFLKSLSDQPRDLPHLLLYGPNGTGKKTRCMALLESIFGPGVYRLKIDVRQFVTASNRKLELNVVSSPYHLEITPSDMGNNDRIVIQELLKEVAQMEQVDFQDSKDGLAHRYKCVIINEANSLTKDAQAALRRTMEKYSKNIRLIMVCDSMSPIIAPIKSRCLLIRCPAPSDSEISTILSDVVTNERIQLETKDILKRIAQASNGNLRVSLLMLESMALNNELALKSSSPIIKPDWIIVIHKLTRKIVKERSVNSLIECRAVLYDLLAHCIPANIILKELTFSLLDVETLNTTNKSSIIEYSSVFDERLSLGNKAIFHLEGFIAKVMCCLD
